Measured data: PubChem BioAssay AID652272 (Drosophila RNAi Screening Center, 2013)

Purpose: 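Genome-wide knock-down search for components of Hedgehog signalling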 (primary screen)
Cell system: Drosophila clone 8 (Cl8) cells
Reagents: long dsRNA against Drosophila genes
Detection: 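Plate reader light from a firefly reporter under a ptc promoter fragment that responds to Hedgehog, with Renilla light as transfection reference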
Scale: firefly Hh reporter signal: higher = more ptc reporter light; Renilla reference signal: higher = more Renilla control light
Active means: 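Called a hit if the two-replicate mean z-score lies below -2 or above +3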
Calls: active = hit: reporter lowered or raised; inactive = not a hit
In all, the deposit lists about 21,000 reagents; below is an unselected part of those that have a named target and a result. In the full data, 503 (2.4%) got an active call. 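Raw plate light values, not normalised; calls rest on replicate z-scores that were not deposited; hits include reporter decreases as well as increases.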 The numbers tell different reagents against one gene apart. A plus sign joins genes that one reagent is predicted to hit. Not stated in the record: the amount of reagent, the time to read-out.

| gene knocked down | reagent no. | firefly Hh reporter signal, replicate 1 | firefly Hh reporter signal, replicate 2 | firefly Hh reporter signal, replicate 3 | Renilla reference signal, replicate 1 | Renilla reference signal, replicate 2 | Call |
| --- | --- | --- | --- | --- | --- | --- | --- |
| CG8173 (GeneID 32753) | 1 | 83977 | 2.33e5 | – | 2999 | 7879 | inactive |
| CG12910 (GeneID 36082) | 1 | 77193 | 26568 | – | 2960 | 870 | inactive |
| CG10939 (GeneID 44155) | 1 | 77939 | 1.15e5 | – | 4000 | 3996 | inactive |
| CG5174 (GeneID 37117) | 1 | 1.48e5 | 1.15e5 | – | 5738 | 4675 | inactive |
| hb (GeneID 41032) | 1 | 91691 | 98790 | – | 3865 | 3733 | inactive |
| CG2681 (GeneID 31258) | 1 | 1.30e5 | 1.12e5 | – | 2224 | 3770 | inactive |
| CG2113 (GeneID 38356) | 1 | 69523 | 31004 | – | 2216 | 2547 | inactive |
| Gpo1 (GeneID 47611) | 1 | 1.20e5 | 88617 | – | 5701 | 4125 | inactive |
| RpS27 (GeneID 43039) | 1 | 2.74e5 | 37289 | – | 21232 | 2341 | active |
| qkr58E-3 (GeneID 37559) | 1 | 97637 | 85021 | – | 3796 | 2979 | inactive |
| CG7366 (GeneID 38918) | 1 | 7.41e5 | 1.06e5 | – | 4716 | 4716 | inactive |
| CG14282 (GeneID 42301) | 1 | 5.22e5 | 69328 | – | 26129 | 1563 | inactive |
| PGRP-SA (GeneID 32099) | 1 | 78688 | 1.85e5 | – | 3009 | 7610 | inactive |
| CG43131 (GeneID 12798230) | 1 | 5.45e5 | 1.80e5 | 80732 | 3508 | 3280 | inactive |
| CG17168 (GeneID 3354996) | 1 | 61681 | 2.07e5 | – | 1504 | 9232 | inactive |
| CG13056 (GeneID 50267) | 1 | 1.62e5 | – | – | 6330 | 4544 | inactive |
| Peritrophin-15a (GeneID 50433) | 1 | 1.19e5 | 68614 | – | 3020 | 7156 | inactive |
| CG43386 (GeneID 31929) | 1 | 62819 | 1.29e5 | – | 1843 | 5365 | inactive |
| CG1889 + CG43386 | 1 | 95986 | 2.24e5 | – | 3168 | 9657 | inactive |
| SdhBL (GeneID 32887) | 1 | 63757 | 2.49e5 | – | 1638 | 9904 | inactive |
| CG30158 (GeneID 50149) | 1 | 1.16e5 | 1.90e5 | – | 4080 | 11643 | active |
| CG30158 (GeneID 50149) | 2 | 97154 | 66405 | – | 2168 | 5875 | inactive |
| CG30158 (GeneID 50149) | 3 | 1.07e5 | 74608 | – | 2697 | 6538 | inactive |
| CG30158 (GeneID 50149) | 4 | 1.13e5 | 73828 | – | 2804 | 6672 | inactive |
| CG7058 (GeneID 32873) | 1 | 56768 | 2.16e5 | – | 1396 | 9623 | inactive |
| Cyt-b5-r (GeneID 35008) | 1 | 1.27e5 | 84240 | – | 3323 | 6807 | inactive |
| CG13928 (GeneID 38195) | 1 | 63818 | 30219 | – | 2530 | 2880 | inactive |
| CG14408 (GeneID 32407) | 1 | 1.10e5 | 64135 | – | 2645 | 1808 | inactive |
| Rpt4R (GeneID 39351) | 1 | 1954 | 69632 | 79753 | 6730 | 5884 | inactive |
| RunxB (GeneID 33051) | 1 | 7.00e5 | 2.84e5 | – | 42679 | 6933 | inactive |
| RunxB (GeneID 33051) | 2 | 81000 | 2.25e5 | – | 3033 | 7697 | inactive |
| RunxB (GeneID 33051) | 3 | 48997 | 34552 | – | 1914 | 1946 | inactive |
| CG10628 (GeneID 35263) | 1 | 71900 | 46752 | – | 1908 | 3867 | inactive |
| Anp (GeneID 43595) | 1 | 84726 | 83826 | – | 1907 | 2541 | inactive |
| Cypl (GeneID 38069) | 1 | 67321 | 39735 | – | 1908 | 3174 | inactive |
| CG11597 (GeneID 39337) | 1 | 42775 | 56834 | – | 1618 | 2537 | inactive |
| CG14195 (GeneID 32911) | 1 | 96269 | 1.97e5 | – | 2982 | 6554 | inactive |
| CG31730 (GeneID 318920) | 1 | 5.20e5 | 2.29e5 | – | 26497 | 8605 | inactive |
| CG34210 (GeneID 5740490) | 1 | 1.09e5 | 74466 | – | 2106 | 6977 | inactive |
| CG14200 (GeneID 32939) | 1 | 29392 | 49037 | – | 1499 | 2880 | inactive |
| NaCP60E (GeneID 37981) | 1 | 1.15e5 | 1.24e5 | – | 5005 | 4717 | inactive |
| ARY (retired record) (GeneID 3355076) | 1 | 6.92e5 | 2.47e5 | – | 42373 | 6584 | inactive |
| RPA3 (GeneID 32113) | 1 | 83488 | 1.92e5 | – | 2794 | 7990 | inactive |
| CG6931 (GeneID 39363) | 1 | 1.82e5 | 1.02e5 | – | 6768 | 4235 | inactive |
| CG6337 (GeneID 36530) | 1 | 1.38e5 | 1.13e5 | – | 2971 | 8298 | inactive |
| z (GeneID 31230) | 1 | 34380 | 49954 | – | 858 | 1709 | inactive |
| gcl (GeneID 35864) | 1 | 76569 | 25882 | – | 2595 | 977 | inactive |
| Cndp2 (GeneID 35507) | 1 | 61281 | 77051 | – | 1653 | 5189 | inactive |
| betaTub85D (GeneID 41124) | 1 | 53542 | 82728 | – | 1154 | 2234 | inactive |
| CG11444 (GeneID 31388) | 1 | 83296 | 91036 | – | 1008 | 2709 | inactive |
| CG12159 (GeneID 35741) | 1 | 82445 | 35648 | – | 2065 | 3665 | inactive |
| Cyp4p3 (GeneID 35948) | 1 | 1.40e5 | 76322 | – | 4374 | 6432 | inactive |
| CG14572 (GeneID 40422) | 1 | 1.37e5 | 1.36e5 | – | 4517 | 7665 | inactive |
| CG9932 (GeneID 34701) | 1 | 85953 | 43194 | – | 2555 | 4551 | inactive |
| RpL28 + snoRNA:Or-CD12 | 1 | 31255 | 23025 | – | 1914 | 2881 | active |
| Kif3C (GeneID 43820) | 1 | 84502 | 1.55e5 | – | 2322 | 6921 | inactive |
| Kif3C (GeneID 43820) | 2 | 1.02e5 | 1.90e5 | – | 3776 | 7811 | inactive |
| CG14568 (GeneID 40418) | 1 | 1.37e5 | 1.66e5 | – | 4400 | 8978 | inactive |
| Clamp (GeneID 35445) | 1 | 1.53e5 | 1.10e5 | – | 6146 | 4727 | inactive |
| kel (GeneID 35084) | 1 | 69332 | 70538 | – | 2057 | 5680 | inactive |
| Acer (GeneID 34189) | 1 | 98756 | 1.38e5 | – | 4276 | 5090 | inactive |
| CG13984 (GeneID 33879) | 1 | 1.63e5 | 61364 | – | 3756 | 5481 | inactive |
| CG11125 (GeneID 35669) | 1 | 81552 | 43449 | – | 1968 | 4071 | inactive |
| hui (GeneID 36648) | 1 | 1.10e5 | 71428 | – | 4521 | 2516 | inactive |
| CG14204 (GeneID 32950) | 1 | 90183 | 1.56e5 | – | 4066 | 8506 | inactive |
| CG7728 (GeneID 39904) | 1 | 69108 | 41268 | – | 3376 | 2305 | inactive |
| CG43138 (GeneID 12797949) | 1 | 3.25e5 | 1.46e5 | – | 12977 | 2304 | inactive |
| CG31933 (GeneID 326176) | 1 | 1.97e5 | 1.23e5 | – | 4476 | 3351 | inactive |
| kermit (GeneID 46027) | 1 | 80819 | 52416 | – | 3290 | 2229 | inactive |
| CG42327 (GeneID 41401) | 1 | 63824 | 89650 | – | 2096 | 4997 | inactive |
| CG42327 (GeneID 41401) | 2 | 1.45e5 | 1.71e5 | – | 4661 | 4816 | inactive |
| CG7183 (GeneID 42181) | 1 | 1.05e5 | 97175 | – | 4416 | 4131 | inactive |
| COX7AL (GeneID 40995) | 1 | 48180 | 1.37e5 | – | 1770 | 3616 | inactive |

Reagents above called active (3):
| gene knocked down | reagent no. | firefly Hh reporter signal, replicate 1 | firefly Hh reporter signal, replicate 2 | firefly Hh reporter signal, replicate 3 | Renilla reference signal, replicate 1 | Renilla reference signal, replicate 2 | Call |
| --- | --- | --- | --- | --- | --- | --- | --- |
| RpS27 (GeneID 43039) | 1 | 2.74e5 | 37289 | – | 21232 | 2341 | active |
| CG30158 (GeneID 50149) | 1 | 1.16e5 | 1.90e5 | – | 4080 | 11643 | active |
| RpL28 + snoRNA:Or-CD12 | 1 | 31255 | 23025 | – | 1914 | 2881 | active |
